The other results are listed elsewhere or left out. Construct or isoform of the protein are uncertain.

The target in the experiment is T1, ELF2 (UniProt Q15723).
T1 sequence: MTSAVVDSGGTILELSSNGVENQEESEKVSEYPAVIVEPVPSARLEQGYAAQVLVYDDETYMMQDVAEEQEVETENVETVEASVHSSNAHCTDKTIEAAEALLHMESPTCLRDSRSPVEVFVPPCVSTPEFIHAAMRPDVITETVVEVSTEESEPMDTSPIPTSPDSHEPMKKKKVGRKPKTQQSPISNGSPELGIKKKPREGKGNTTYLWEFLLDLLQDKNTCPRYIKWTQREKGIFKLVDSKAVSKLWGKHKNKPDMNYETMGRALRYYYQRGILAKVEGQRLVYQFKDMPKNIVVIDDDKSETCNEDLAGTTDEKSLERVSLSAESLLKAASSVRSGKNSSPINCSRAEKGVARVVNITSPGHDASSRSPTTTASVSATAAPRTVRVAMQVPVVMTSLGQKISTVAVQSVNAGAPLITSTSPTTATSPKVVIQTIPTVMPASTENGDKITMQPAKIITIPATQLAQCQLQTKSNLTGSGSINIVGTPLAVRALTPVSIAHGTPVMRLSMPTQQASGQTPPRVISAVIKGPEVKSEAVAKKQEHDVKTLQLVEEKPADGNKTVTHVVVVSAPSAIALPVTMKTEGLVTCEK
The experiment in a line: DAPPL (digital affinity profiling via proximity ligation, sequencing). The conditions noted are these: 10 mM Tris-HCl pH 7.5, 50 mM NaCl, 1 mM DTT, 4% glycerol, room temperature, 30 min; GST-TFs on glutathione beads, 16-mer random dsDNA library, 0.1% …; high values mean tight binding; double strand, one strand shown; scale: fold enrichment (6-mer frequency, TF over GST control).
AACTAG showed a binding signal of 1.14.
Next, TACACT: 1.54; CGCGAA: 0.96.
Next, ATTTGC: 1.23.
The same measure for GTCTGG: 0.814; for GTGCTA: 1.07.
TGTAAG gave a binding signal of 1.04.
The same measure for CACTAG: 0.962.
Next, AGTAAT: 1.16; CCAGCA: 0.884.
The same measure for CAGATC: 0.845; for TGGATT: 0.974.
ATCGTT registered a binding signal of 0.968.
CTGACA displayed a binding signal of 1.18.
The same measure for GATTTA: 1.01; for GCTCTA: 1.11; for ATTAGA: 0.869.
In turn, TGACTA yielded a binding signal of 1.11.
The same measure for GTTCCT: 2.1.
Next, CCCTAG: 0.953; GATCTA: 0.969; TGCTTA: 1.01.
As for TGATTC, the binding signal came out at 1.08.
The same measure for TCTTCG: 1.36.
The same measure for CGAGTA: 0.771; for TTCTAC: 1.51.
As for CATGCG, the binding signal was determined as 1.
The same measure for AACTCT: 1.27.
The same measure for ACTTGC: 1.34; for TTGCTC: 1.18; for CTCCCT: 1.44.
The same measure for AAGCCC: 1.11.
Consider CTGATT, for which the binding signal worked out at 1.21.
TAATTA registered a binding signal of 1.28.
Next, CTCTTA: 1.3; TAGCTC: 1.15.
TTATAT registered a binding signal of 1.38.
Next, CTGAAC: 1.34; TAGCGC: 0.906.
The same measure for ACTAGA: 0.908.

The values are drawn from paper PMC7862700.
